# Assay results reported in the supplement of paper PMC8728848.
# Some of the results follow.
# Legend:
# Test in all cases: glycan array binding signal (z-score within array); higher = stronger binding
# Settings in all cases: glycan notation: IUPAC condensed, linker removed
# [1] = target: Fuc(a1-2)[Gal(a1-3)]Gal(b1-3)GlcNAc(b1-2)Man(a1-3)[Fuc(a1-2)[Gal(a1-3)]Gal(b1-3)GlcNAc(b1-2)Man(a1-6)]Man(b1-4)GlcNAc(b1-4)[Fuc(a1-6)]GlcNAc
# Summary of the method: (§1)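 From the Consortium for Functional Glycomics database, 3228 arrays were curated, keeping only those whose protein sequence was available. Binding is given as a within-array Z-score averaged across arrays sharing a protein sequence and across linkers. Negative Z-scores can be read as non-binding.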
# [2] = target: Fuc(a1-2)[Gal(a1-3)]Gal(b1-3)GlcNAc(b1-3)GalNAc
# Summary of the method: as §1
# [3] = target: Fuc(a1-2)[Gal(a1-3)]Gal(b1-3)GlcNAc(b1-6)GalNAc
# Summary of the method: as §1
# [4] = target: Fuc(a1-2)[Gal(a1-3)]Gal(b1-4)Glc
# Summary of the method: as §1
# [5] = target: Fuc(a1-2)[Gal(a1-3)]Gal(b1-4)GlcNAc
# Summary of the method: as §1
# [6] = target: Fuc(a1-2)[Gal(a1-3)]Gal(b1-4)GlcNAc(b1-2)Man
# Summary of the method: as §1
# [7] = target: Fuc(a1-2)[Gal(a1-3)]Gal(b1-4)GlcNAc(b1-2)Man(a1-3)[Fuc(a1-2)[Gal(a1-3)]Gal(b1-4)GlcNAc(b1-2)Man(a1-6)]Man(b1-4)GlcNAc(b1-4)GlcNAc
# Summary of the method: as §1
# [8] = target: Fuc(a1-2)[Gal(a1-3)]Gal(b1-4)GlcNAc(b1-2)Man(a1-3)[Fuc(a1-2)[Gal(a1-3)]Gal(b1-4)GlcNAc(b1-2)Man(a1-6)]Man(b1-4)GlcNAc(b1-4)[Fuc(a1-6)]GlcNAc
# Summary of the method: as §1
# [9] = target: Fuc(a1-2)[Gal(a1-3)]Gal(b1-4)GlcNAc(b1-3)GalNAc
# Summary of the method: as §1
# [10] = target: Fuc(a1-2)[Gal(a1-3)]Gal(b1-4)GlcNAc(b1-3)[Fuc(a1-2)[Gal(a1-3)]Gal(b1-4)GlcNAc(b1-6)]GalNAc
# Summary of the method: as §1
# [11] = target: Fuc(a1-2)[Gal(a1-3)]Gal(b1-4)GlcNAc(b1-6)GalNAc
# Summary of the method: as §1
# [12] = target: Fuc(a1-2)[Gal(a1-3)]Gal(b1-4)[Fuc(a1-3)]Glc
# Summary of the method: as §1
# [13] = target: Fuc(a1-2)[Gal(a1-3)]Gal(b1-4)[Fuc(a1-3)]GlcNAc
# Summary of the method: as §1
# [14] = target: Fuc(a1-2)[Gal(a1-3)]Gal(b1-4)[Fuc(a1-3)]GlcNAc(b1-3)GalNAc
# Summary of the method: as §1
# [15] = target: Fuc(a1-2)[Gal(a1-4)]Gal(b1-4)GlcNAc
# Summary of the method: as §1
# [16] = target: Fuc(a1-2)[GalNAc(a1-3)]Gal
# Summary of the method: as §1
# [17] = target: Fuc(a1-2)[GalNAc(a1-3)]Gal(b1-3)GalNAc(a1-3)[Fuc(a1-2)]Gal(b1-4)GlcNAc
# Summary of the method: as §1
# [18] = target: Fuc(a1-2)[GalNAc(a1-3)]Gal(b1-3)GalNAc(b1-3)Gal(a1-4)Gal(b1-4)Glc
# Summary of the method: as §1
# [19] = target: Fuc(a1-2)[GalNAc(a1-3)]Gal(b1-3)GlcNAc
# Summary of the method: as §1
# [20] = target: Fuc(a1-2)[GalNAc(a1-3)]Gal(b1-3)GlcNAc(b1-2)Man(a1-3)[Fuc(a1-2)[GalNAc(a1-3)]Gal(b1-3)GlcNAc(b1-2)Man(a1-6)]Man(b1-4)GlcNAc(b1-4)GlcNAc
# Summary of the method: as §1
# [21] = target: Fuc(a1-2)[GalNAc(a1-3)]Gal(b1-3)GlcNAc(b1-2)Man(a1-3)[Fuc(a1-2)[GalNAc(a1-3)]Gal(b1-3)GlcNAc(b1-2)Man(a1-6)]Man(b1-4)GlcNAc(b1-4)[Fuc(a1-6)]GlcNAc
# Summary of the method: as §1
# [22] = target: Fuc(a1-2)[GalNAc(a1-3)]Gal(b1-3)GlcNAc(b1-3)GalNAc
# Summary of the method: as §1
# [23] = target: Fuc(a1-2)[GalNAc(a1-3)]Gal(b1-3)GlcNAc(b1-6)GalNAc
# Summary of the method: as §1
# [24] = target: Fuc(a1-2)[GalNAc(a1-3)]Gal(b1-4)Glc
# Summary of the method: as §1
# [25] = target: Fuc(a1-2)[GalNAc(a1-3)]Gal(b1-4)GlcNAc
# Summary of the method: as §1
# [26] = target: Fuc(a1-2)[GalNAc(a1-3)]Gal(b1-4)GlcNAc(b1-2)Man
# Summary of the method: as §1
# [27] = target: Fuc(a1-2)[GalNAc(a1-3)]Gal(b1-4)GlcNAc(b1-2)Man(a1-3)[Fuc(a1-2)[GalNAc(a1-3)]Gal(b1-4)GlcNAc(b1-2)Man(a1-6)]Man(b1-4)GlcNAc(b1-4)GlcNAc
# Summary of the method: as §1
# [28] = target: Fuc(a1-2)[GalNAc(a1-3)]Gal(b1-4)GlcNAc(b1-2)Man(a1-3)[Fuc(a1-2)[GalNAc(a1-3)]Gal(b1-4)GlcNAc(b1-2)Man(a1-6)]Man(b1-4)GlcNAc(b1-4)[Fuc(a1-6)]GlcNAc
# Summary of the method: as §1
# [29] = target: Fuc(a1-2)[GalNAc(a1-3)]Gal(b1-4)GlcNAc(b1-3)Gal(b1-4)GlcNAc
# Summary of the method: as §1
# [30] = target: Fuc(a1-2)[GalNAc(a1-3)]Gal(b1-4)GlcNAc(b1-3)Gal(b1-4)GlcNAc(b1-3)Gal(b1-4)GlcNAc
# Summary of the method: as §1
binder,measurement,setting,value
"LlpA1 (Pseudomonas fluorescens), Q4KHC3 (protein) MGSSHHHHHHSSGLVPRGSHMAWIRYDFTDNGSSVLPARYYMAPNQYLQSPNKRFKLLFQADGNLALYDGAQLAWVADQNTPFTNVSKGNKKDPMMVFMNYGFVLDDPLRGRIWSTTPSDPTMGSREDASLRAFTQVQDDGNIVTVDTIPHWYAPNGRVFTPAVGAAMIIGGTTELVPGQFYSAGEHSLVFQGDGNLVVYGPNSSVIWATYTQNKGGVRCVMQEDGNLVIYAANNGVVWQSGTGGHPGATIRLQANGSFTIVTERPVWARFGYTPTIKPPRVFYPDHKWKTGSYTWNNVF",glycan array binding signal (z-score),[1],1.44
same,glycan array binding signal (z-score),[2],-0.628
same,glycan array binding signal (z-score),[3],-0.038
same,glycan array binding signal (z-score),[4],-0.437
same,glycan array binding signal (z-score),[5],-0.643
same,glycan array binding signal (z-score),[6],-0.603
same,glycan array binding signal (z-score),[7],0.423
same,glycan array binding signal (z-score),[8],-0.028
same,glycan array binding signal (z-score),[9],-0.551
same,glycan array binding signal (z-score),[10],-0.295
same,glycan array binding signal (z-score),[11],1.05
same,glycan array binding signal (z-score),[12],-0.844
same,glycan array binding signal (z-score),[13],-0.442
same,glycan array binding signal (z-score),[14],0.642
same,glycan array binding signal (z-score),[15],0.638
same,glycan array binding signal (z-score),[16],-0.685
same,glycan array binding signal (z-score),[17],0.047
same,glycan array binding signal (z-score),[18],0.171
same,glycan array binding signal (z-score),[19],0.48
same,glycan array binding signal (z-score),[20],0.063
same,glycan array binding signal (z-score),[21],0.411
same,glycan array binding signal (z-score),[22],-0.227
same,glycan array binding signal (z-score),[23],0.221
same,glycan array binding signal (z-score),[24],-0.172
same,glycan array binding signal (z-score),[25],-0.412
same,glycan array binding signal (z-score),[26],-0.142
same,glycan array binding signal (z-score),[27],-0.199
same,glycan array binding signal (z-score),[28],1.06
same,glycan array binding signal (z-score),[29],-0.681
same,glycan array binding signal (z-score),[30],0.767

# A section taken from the entries so far, for reference:
binder,measurement,setting,value
"LlpA1 (Pseudomonas fluorescens), Q4KHC3 (protein) MGSSHHHHHHSSGLVPRGSHMAWIRYDFTDNGSSVLPARYYMAPNQYLQSPNKRFKLLFQADGNLALYDGAQLAWVADQNTPFTNVSKGNKKDPMMVFMNYGFVLDDPLRGRIWSTTPSDPTMGSREDASLRAFTQVQDDGNIVTVDTIPHWYAPNGRVFTPAVGAAMIIGGTTELVPGQFYSAGEHSLVFQGDGNLVVYGPNSSVIWATYTQNKGGVRCVMQEDGNLVIYAANNGVVWQSGTGGHPGATIRLQANGSFTIVTERPVWARFGYTPTIKPPRVFYPDHKWKTGSYTWNNVF",glycan array binding signal (z-score),[24],-0.172
same,glycan array binding signal (z-score),[25],-0.412
